Measured values: article doi:10.1101/2025.04.16.649119
No constants are given. Whether binding was seen depends on the method and setting. Some binding calls cover weakened binding; strength is not graded here.

Sequences of proteins named here, by UniProt entry; tags and fusion partners are left off.
UniProt Q01844: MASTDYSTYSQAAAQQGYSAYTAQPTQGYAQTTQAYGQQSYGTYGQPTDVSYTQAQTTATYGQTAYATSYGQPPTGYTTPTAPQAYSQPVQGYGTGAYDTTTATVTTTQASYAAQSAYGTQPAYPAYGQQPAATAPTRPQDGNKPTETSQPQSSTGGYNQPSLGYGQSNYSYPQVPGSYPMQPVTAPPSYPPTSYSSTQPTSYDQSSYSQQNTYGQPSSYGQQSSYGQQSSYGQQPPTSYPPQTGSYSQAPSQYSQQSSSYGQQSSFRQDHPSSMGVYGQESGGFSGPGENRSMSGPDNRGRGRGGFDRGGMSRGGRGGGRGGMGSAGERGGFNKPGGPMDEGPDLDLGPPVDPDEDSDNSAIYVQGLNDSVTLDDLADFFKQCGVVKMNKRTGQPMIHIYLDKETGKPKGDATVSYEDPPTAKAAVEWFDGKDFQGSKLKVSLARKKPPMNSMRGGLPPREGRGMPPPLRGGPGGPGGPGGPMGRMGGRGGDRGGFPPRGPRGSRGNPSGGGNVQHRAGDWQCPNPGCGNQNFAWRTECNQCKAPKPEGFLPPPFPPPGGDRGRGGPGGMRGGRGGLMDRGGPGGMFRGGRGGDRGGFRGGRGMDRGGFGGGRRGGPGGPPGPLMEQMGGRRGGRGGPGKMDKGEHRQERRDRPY
UniProt P35637: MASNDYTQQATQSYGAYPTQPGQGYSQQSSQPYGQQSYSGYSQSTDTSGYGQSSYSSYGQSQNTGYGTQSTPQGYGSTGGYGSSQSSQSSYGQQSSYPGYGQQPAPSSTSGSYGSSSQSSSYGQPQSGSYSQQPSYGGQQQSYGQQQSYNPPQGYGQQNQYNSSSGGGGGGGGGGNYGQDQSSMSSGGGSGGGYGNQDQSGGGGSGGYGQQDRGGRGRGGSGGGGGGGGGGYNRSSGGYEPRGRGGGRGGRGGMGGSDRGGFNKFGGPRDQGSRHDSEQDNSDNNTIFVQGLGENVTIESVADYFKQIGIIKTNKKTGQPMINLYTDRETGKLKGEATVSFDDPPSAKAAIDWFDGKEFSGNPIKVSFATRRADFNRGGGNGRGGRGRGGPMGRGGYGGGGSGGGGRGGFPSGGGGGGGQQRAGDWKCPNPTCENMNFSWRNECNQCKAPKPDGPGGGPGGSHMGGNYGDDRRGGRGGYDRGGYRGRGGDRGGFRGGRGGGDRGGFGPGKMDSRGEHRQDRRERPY

Experiments:
[1] = target: EWSR1-SNAP (Ewing Sarcoma RNA binding protein 1 with a C-terminal SNAP-tag) (UniProt Q01844); experiment: nanoparticle tracking analysis
[2] = target: EWSR1-SNAP (Ewing Sarcoma RNA binding protein 1 with a C-terminal SNAP-tag) (UniProt Q01844); experiment: dynamic light scattering
untagged FUS = untagged FUS (UniProt P35637); experiment: dynamic light scattering

Substance	binding [1]	binding [2]	binding (untagged FUS)
EWSR1-SNAP (Ewing Sarcoma RNA binding protein 1 with a C-terminal SNAP-tag) (from UniProt Q01844 1-656)	binds	binds	–
untagged FUS (from UniProt P35637 1-526)	–	–	no binding (condition: with 60 mM NaTS)
